Measurements reported in PubChem BioAssay AID624150 (Cancer Research UK Cambridge, 2012)
Shown is a random part of 331 reagents tested. 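Each arm had three replicate z-scores, but only the first replicate is printed; higher values mean more differentiation marker per cell.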 Further read-outs or replicates are left out here.

Assay: 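Find chromatin regulators that change keratinocyte differentiation across several stimuli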 (primary screen)
Cell system: primary human epidermal keratinocytes
Knock-down reagent: siRNA pool against human genes, 1-2 µM siRNA in 20 µl nucleofection
Duration: 72 h after transfection plus 48 h differentiation (about 5 days)
Challenge: five arms for 48 h: vehicle, AG1478 10 µM, BMP2/7 200 ng/ml, both together, or 10% serum
Detection: 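Per-cell amount of a differentiation marker read by infrared scanning of the plate, given as a z-score within each plate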
Direction: z-score, vehicle: higher = more differentiation marker per cell

With ETV6 (GeneID 2120) [SID135635743], what does the deposit list?
z-score, vehicle: 0.998

With ING4 (GeneID 51147) [SID135635794], how do the results read?
z-score, vehicle: 0.475

With SIRT3 (GeneID 23410) [SID135635883], what was measured?
z-score, vehicle: 0.272

With RAD54B (GeneID 25788) [SID135635895], what was measured?
z-score, vehicle: -0.126

With ATAD2 (GeneID 29028) [SID135635602], what was measured?
z-score, vehicle: -0.871

With CHAF1A (GeneID 10036) [SID135635646], what was measured?
z-score, vehicle: -1.08

For TYW5 (GeneID 129450) [SID135635691], what does the deposit list?
z-score, vehicle: 0.35

With SP140 (GeneID 11262) [SID135635802], what does the deposit list?
z-score, vehicle: -0.233

How did the screen score CDY1 (GeneID 9085) [SID135635644]?
z-score, vehicle: 0.0473

How did the screen score PRMT6 (GeneID 55170) [SID135635817]?
z-score, vehicle: 0.515

For JMJD1C (GeneID 221037) [SID135635690], what does the deposit list?
z-score, vehicle: -0.329

What is on record for KDM5B (GeneID 10765) [SID135635712]?
z-score, vehicle: -0.606

With GTF3C4 (GeneID 9329) [SID135635669], how do the results read?
z-score, vehicle: 1.07

Single entries from the list:
Value for CDY1 (GeneID 9085) [SID135635644] in “z-score, vehicle”: 0.0473
RAD54B (GeneID 25788) [SID135635895], z-score, vehicle → -0.126
Result for ING4 (GeneID 51147) [SID135635794] under “z-score, vehicle”: 0.475

The results go on:
How did the screen score HDAC7 (GeneID 51564) [SID135635688]?
z-score, vehicle: 0.815

What is on record for CBX5 (GeneID 23468) [SID135635645]?
z-score, vehicle: 0.723

Which result is listed for ATRX (GeneID 546) [SID135635756]?
z-score, vehicle: 1.08

How did the screen score RIOX1 (GeneID 79697) [SID135635703]?
z-score, vehicle: 0.168

What did the screen give for KMT5B (GeneID 51111) [SID135635837]?
z-score, vehicle: 0.268

What is on record for BRD4 (GeneID 23476) [SID135635593]?
z-score, vehicle: -2.36

Which result is listed for PHF23 (GeneID 79142) [SID135635785]?
z-score, vehicle: 0.0964

With SFMBT1 (GeneID 51460) [SID135635750], what does the deposit list?
z-score, vehicle: 0.12

Which result is listed for KDM4A (GeneID 9682) [SID135635715]?
z-score, vehicle: 1.02

What did the screen give for PBRM1 (GeneID 55193) [SID135635591]?
z-score, vehicle: 0.901

With TARBP1 (GeneID 6894) [SID135635656], what was measured?
z-score, vehicle: 0.467

How did the screen score RNMT (GeneID 8731) [SID135635654]?
z-score, vehicle: -0.35

Which result is listed for MBD5 (GeneID 55777) [SID135635742]?
z-score, vehicle: -0.288

How did the screen score TRMT11 (GeneID 60487) [SID135635657]?
z-score, vehicle: -1.07

With PHF20 (GeneID 51230) [SID135635811], what does the deposit list?
z-score, vehicle: -0.455

How did the screen score TCF19 (GeneID 6941) [SID135635796]?
z-score, vehicle: -1.14

With KMT2E (GeneID 55904) [SID135635871], how do the results read?
z-score, vehicle: -1.63
